Measured values: paper PMC12670160, “A drug-repurposing screen of FDA- and EMA-approved drugs identifies two NF-κB inhibitors active against eumycetoma” (Journal of Antimicrobial Chemotherapy, 2025)
Where a name gives a salt, the structure may show the parent alone. Read-outs that look alike come from different tables or passages of the source. Among all 5,300 compounds or so, about 130 (2.5%) showed an effect of 50% or more. The list shows a part of the results. Numbered stars: 1 amine (or outer) side, 2 acyl side, 3 side chain; on linkers, the order of the positions; unused ones are H or OH. Bridge positions count the residues as written; N and C are the ends. Square brackets hold non-standard residues; d marks the D form. Peptide text beside a SMILES is read from it. * marks the point of attachment. ξ: configuration not given here. pTerphenylCO(4''-OnC5H11) = CCCCCOc1ccc(-c2ccc(-c3ccc(C(=O)*)cc3)cc2)cc1; ξOrn(4,5-diOH) = O=C(C(CC(O)C(O)N[*:3])N[*:1])[*:2]; ξhTyr(βξ-OH,γξ-OH) = NC(C(=O)O)C(O)C(O)c1ccc(O)cc1; ξPro(3ξ-OH,4ξ-Me) = CC1CNC(C(=O)O)C1O; Hyp = O=C(O)[CH]1C[CH](O)CN1

Test system: M. mycetomatis strain mm55
Conditions: primary screen, metabolic activity vs growth control, 96 h, 2 µM, inhibitor

Compound	% viability [%]	% viability (Madurella mycetomatis metabolic activity at 2µM (%)) [%]
CC1Cc2ccccc2N1NC(=O)c1ccc(Cl)c(S(N)(=O)=O)c1 (stereo not drawn) [ONC0000372, indapamide]	91.11	
COc1ccc(C2CC(c3c(O)cc(C)oc3=O)=NCCS2)c(OC)c1 (stereo not drawn) [ONC0002676, kf38789]	61.68	
CCC(=O)c1c(O)cc(O)cc1O [ONC0005354, flopropione]	89.06	
C=CC(=O)Nc1ccc2ncnc(Nc3cccc(Br)c3)c2c1 [ONC0005144, pd168393]	107.8	
N#Cc1ccnc(N2C(=O)CC[C@H]2C(=O)N(c2cncc(F)c2)[C@H](C(=O)NC2CC(F)(F)C2)c2ccccc2Cl)c1 [ONC0000852, ivosidenib]	77.83	
CNC(=O)c1cnn(-c2nc(N)c3ncn([C@@H]4O[C@H](CO)[C@@H](O)[C@H]4O)c3n2)c1 [ONC0003450, regadenoson]	65.12	
CCO[C@@H](Cc1ccc(OCCn2c(C)ccc2-c2ccc(SC)cc2)cc1)C(=O)O [ONC0002679, saroglitazar]	69.37	
Nc1ccc(S(=O)(=O)Nc2ccnn2-c2ccccc2)cc1 [ONC0000643, sulfaphenazole]	127.8	
CCN(C)C(=O)Oc1cccc([C@H](C)N(C)C)c1 [ONC0004201, rivastigmine tartrate]	105.8	
C[C@@H](N)c1ccc(C(=O)Nc2ccnc3[nH]ccc23)cc1 [ONC0001191, y33075 dihydrochloride]	84.21	
COC(=O)c1ccccc1-c1c2ccc(N)cc2[o+]c2cc(N)ccc12 [ONC0005366, rhodamine123]	107.2	
COc1ccc(Nc2ccn(-c3ccccc3)n2)cc1 [ONC0000324, n4methoxyphenyl1phenyl1hpyrazol3amine]	100.7	
CO/N=C(\C(=O)N[C@@H]1C(=O)N2C(C(=O)O)=C(COC(N)=O)CS[C@H]12)c1ccco1 [ONC0000670, cefuroxime sodium]	116	
CN1CCN(CCOc2cc(OC3CCOCC3)c3c(Nc4c(Cl)ccc5c4OCO5)ncnc3c2)CC1 [ONC0004950, saracatinib azd0530]	85.52	
CCOCC(O)COc1ccc(NC(=O)CC[S+](C)C)cc1 (stereo not drawn) [ONC0001402, suplatast tosylate]	102.4	
COc1cc(/C=C(\C#N)C(N)=O)cc(CSc2nc3ccccc3s2)c1O [ONC0002729, tyrphostinag825]	75.66	
CC(C)c1nnc(-c2ccc(-c3ccccc3)nc2)n1-c1cccc2nonc12 [ONC0004268, asp2535]	61.85	
O=C(O)c1ccc(CN2CCC(CN[C@@H]3C[C@H]3c3ccccc3)CC2)cc1 [ONC0001137, gsk2879552]	48.21	
CC(=O)Nc1ncc([N+](=O)[O-])s1 [ONC0004009, nithiamide]	74.22	

Reformatted bar-delimited: 16 of the compounds above
Compound | % viability [%] | % viability (Madurella mycetomatis metabolic activity at 2µM (%)) [%]
CC1Cc2ccccc2N1NC(=O)c1ccc(Cl)c(S(N)(=O)=O)c1 (stereo not drawn) [ONC0000372, indapamide] | 91.11 | 
COc1ccc(C2CC(c3c(O)cc(C)oc3=O)=NCCS2)c(OC)c1 (stereo not drawn) [ONC0002676, kf38789] | 61.68 | 
CCC(=O)c1c(O)cc(O)cc1O [ONC0005354, flopropione] | 89.06 | 
C=CC(=O)Nc1ccc2ncnc(Nc3cccc(Br)c3)c2c1 [ONC0005144, pd168393] | 107.8 | 
N#Cc1ccnc(N2C(=O)CC[C@H]2C(=O)N(c2cncc(F)c2)[C@H](C(=O)NC2CC(F)(F)C2)c2ccccc2Cl)c1 [ONC0000852, ivosidenib] | 77.83 | 
CNC(=O)c1cnn(-c2nc(N)c3ncn([C@@H]4O[C@H](CO)[C@@H](O)[C@H]4O)c3n2)c1 [ONC0003450, regadenoson] | 65.12 | 
CCO[C@@H](Cc1ccc(OCCn2c(C)ccc2-c2ccc(SC)cc2)cc1)C(=O)O [ONC0002679, saroglitazar] | 69.37 | 
Nc1ccc(S(=O)(=O)Nc2ccnn2-c2ccccc2)cc1 [ONC0000643, sulfaphenazole] | 127.8 | 
CCN(C)C(=O)Oc1cccc([C@H](C)N(C)C)c1 [ONC0004201, rivastigmine tartrate] | 105.8 | 
C[C@@H](N)c1ccc(C(=O)Nc2ccnc3[nH]ccc23)cc1 [ONC0001191, y33075 dihydrochloride] | 84.21 | 
COC(=O)c1ccccc1-c1c2ccc(N)cc2[o+]c2cc(N)ccc12 [ONC0005366, rhodamine123] | 107.2 | 
COc1ccc(Nc2ccn(-c3ccccc3)n2)cc1 [ONC0000324, n4methoxyphenyl1phenyl1hpyrazol3amine] | 100.7 | 
CO/N=C(\C(=O)N[C@@H]1C(=O)N2C(C(=O)O)=C(COC(N)=O)CS[C@H]12)c1ccco1 [ONC0000670, cefuroxime sodium] | 116 | 
CN1CCN(CCOc2cc(OC3CCOCC3)c3c(Nc4c(Cl)ccc5c4OCO5)ncnc3c2)CC1 [ONC0004950, saracatinib azd0530] | 85.52 | 
CCOCC(O)COc1ccc(NC(=O)CC[S+](C)C)cc1 (stereo not drawn) [ONC0001402, suplatast tosylate] | 102.4 | 
COc1cc(/C=C(\C#N)C(N)=O)cc(CSc2nc3ccccc3s2)c1O [ONC0002729, tyrphostinag825] | 75.66 | 

Following part

Compound	% viability [%]	% viability (Madurella mycetomatis metabolic activity at 2µM (%)) [%]
FC(F)(F)c1ccc(N2CCNCC2)nc1Cl [ONC0001937, org12962]	70.23	
COc1cc(C#N)ccc1S(=O)(=O)Nc1ccc2c(c1)cc(C)c(=O)n2C [ONC0003652, ni57]	62.58	
Cc1cc(CC(=O)O)n(C)c1C(=O)c1ccc(Cl)cc1 [ONC0003404, zomepirac sodium]	97.2	
O=C(O)C1=CCCNC1 [ONC0003071, guvacine]	130.1	
CC(=O)Nc1cccc(Nc2ncnc(N3CCC(OCc4ccc(OC(F)(F)F)cc4)CC3)n2)c1C [ONC0004487, tcn1752]	159.7	
CCC1(c2ccc(N)cc2)CCC(=O)NC1=O (stereo not drawn) [ONC0003189, aminoglutethimide]	107.9	
C[C@H](CCC(=O)O)[C@H]1CC[C@H]2[C@@H]3CC[C@@H]4C[C@H](O)CC[C@]4(C)[C@H]3C[C@H](O)[C@]12C [ONC0001972, deoxycholic acid]	111.6	
Nc1nccc2c1ncn2[C@@H]1O[C@H](CO)C(O)C1O (stereo partly drawn) [ONC0001988, 3deazaadenosine]	139.4	
Nc1ccc2cc3ccc(N)cc3nc2c1 [ONC0004263, proflavine hemisulfate]	83.54	
O=C(NN1C(=O)[C@@H]2[C@@H]3C=C[C@@H]([C@H]4C[C@@H]34)[C@@H]2C1=O)c1ccc(C(F)(F)F)cc1 [ONC0001041, tecovirimat]	87.54	
C[C@H](Cc1ccc2c(c1)OC(C(=O)O)(C(=O)O)O2)NC[C@H](O)c1cccc(Cl)c1 [ONC0001625, cl316243]	75.29	
CC(C)c1nc(N(C)S(C)(=O)=O)nc(-c2ccc(F)cc2)c1/C=C/[C@@H](O)C[C@@H](O)CC(=O)O [ONC0004242, rosuvastatin calcium]	62.66	
CCCCCOc1ccc(-c2ccc(-c3ccc(C(=O)N[C@H]4C[C@@H](O)[C@@H](O)NC(=O)[C@@H]5[C@@H](O)[C@@H](C)CN5C(=O)[C@H]([C@@H](C)O)NC(=O)[C@H]([C@H](O)[C@@H](O)c5ccc(O)cc5)NC(=O)[C@@H]5C[C@@H](O)CN5C(=O)[C@H]([C@@H](C)O)NC4=O)cc3)cc2)cc1 [ONC0002234, anidulafungin] ({pTerphenylCO(4''-OnC5H11)}-[ξOrn(4,5-diOH)]T[Hyp][ξhTyr(βξ-OH,γξ-OH)]T[ξPro(3ξ-OH,4ξ-Me)]; lactam 1-C; configuration not given here)	182.3	
C=C(CC)C(=O)c1ccc(OCC(=O)O)c(Cl)c1Cl [ONC0000717, ethacrynic acid]	74.67	
CC1(C)N=C(N)N=C(N)N1OCCCOc1cc(Cl)c(Cl)cc1Cl [ONC0002794, wr99210]	76.68	
Nc1ccc(S(=O)(=O)NC(=O)c2ccccc2)cc1 [ONC0000484, sulfabenzamide]	67.23	
CCOc1ccc(NC(=S)N2CCC(C(O)(c3ccccc3)c3ccccc3)CC2)cc1 [ONC0001806, sf11]	103.2	
C[C@]12C=CC(=O)C=C1CCC1C2[C@@H](O)C[C@@]2(C)C1CC[C@]2(O)C(=O)COP(=O)(O)O (stereo partly drawn) [ONC0004116, prednisolone sodium phosphate]	116.3	
CCCOC(C(=O)OC1CCN(C)CC1)(c1ccccc1)c1ccccc1 [ONC0000299, propiverine hydrochloride]	62.95	

Compound	% viability [%]	% viability (Madurella mycetomatis metabolic activity at 2µM (%)) [%]
CCOCCn1c(C2CCN(CCc3ccc(C(C)(C)C(=O)O)cc3)CC2)nc2ccccc21 [ONC0001779, bilastine]	116.8	
CC(CN(C)C)CN1c2ccccc2Sc2ccccc21 (stereo not drawn) [ONC0003228, trimeprazine tartrate]		94.09
CCOC(=O)COc1ccc2c(c1)C[C@@H](NC[C@H](O)c1cccc(Cl)c1)CC2 [ONC0005593, amibegron]	93.46	
C[C@@H](O)[C@H]1C(=O)N2C(C(=O)O)=C(S[C@@H]3CN[C@H](C(=O)Nc4cccc(C(=O)O)c4)C3)[C@H](C)[C@H]12 [ONC0003353, ertapenem sodium]	77.23	
CCN(CC)CCCC(C)Nc1ccnc2cc(Cl)ccc12 (stereo not drawn) [ONC0000750, chloroquine diphosphate]	85.47	
CS(=O)(=O)c1ccc([C@@H](O)[C@@H](CF)NC(=O)C(Cl)Cl)cc1 [ONC0004043, florfenicol]	70.41	
Cc1nc(Cn2cnc3c2c(=O)n(C)c(=O)n3C)no1 [ONC0005579, ch170]	82.49	
CN1C(C(=O)Nc2ccccn2)C(=O)c2sccc2S1(=O)=O (stereo not drawn) [ONC0002886, tenoxicam]	126.3	
C[C@](N)(Cc1ccc(O)cc1)C(=O)O [ONC0003723, metirosine]	99.2	
[N-]=[N+]=N[C@]1(CO)O[C@@H](n2ccc(N)nc2=O)[C@H](O)[C@@H]1O [ONC0001768, r1479]	81.29	
CNC(=O)c1c(-c2ccc(F)cc2)oc2cc(N(CCO)S(C)(=O)=O)c(C3CC3)cc12 [ONC0002076, nesbuvir]	52.04	
CC(C)=CCC[C@](C)(O)[C@H]1CC[C@]2(C)[C@@H]1[C@H](O)C[C@@H]1[C@@]3(C)CC[C@H](O[C@@H]4O[C@H](CO)[C@@H](O)[C@H](O)[C@H]4O[C@@H]4O[C@H](CO)[C@@H](O)[C@H](O)[C@H]4O)C(C)(C)[C@@H]3CC[C@]12C [ONC0002001, ginsenoside rg3]	88.93	
O=C(COc1cccc2c(=O)[nH]ccc12)c1ccccc1 [ONC0000914, upf1069]	64.66	
Cc1cccc(C)c1NC(=O)c1ccccc1C(=O)O [ONC0004248, ftaxilide]	85.25	
O=C(O)Cn1c(C(=O)Nc2nc(-c3ccccc3Cl)cs2)cc2ccccc21 [ONC0002717, sr27897]	83.69	
c1ccc2c(c1)CCCC2C1=NCCN1 (stereo not drawn) [ONC0000596, tetrahydrozoline hydrochloride]	80.8	
COc1cccc(CCc2ccccc2OCC(CN(C)C)OC(=O)CCC(=O)O)c1 (stereo not drawn) [ONC0000984, sarpogrelate hydrochloride]	88.58	
O=C(O[C@@H]1C[C@@H]2C[C@@H]3C[C@H](C1)N2CC3=O)c1c[nH]c2ccccc12 [ONC0005492, dolasetron]	77.8	
CC(C)[C@H](O)C(=O)N[C@@H](C)C(=O)N[C@H]1C(=O)N(C)CCc2ccccc21 [ONC0004859, semagacestat ly450139]	106.7	
